Measurements reported in PubChem BioAssay AID1159584 (Peter MacCallum Cancer Centre, 2016).

- Screen: 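Knock-downs that harm CDH1-null cells more than parental MCF10A cells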 (primary screen)
- Cells: human MCF10A breast epithelial cells, parental and CDH1-null
- Reagents: siRNA against human genes
- Read-out: 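ATP luminescence (CellTiter-Glo) viability per line relative to mean mock wells over all plates, and the ratio of CDH1-null to parental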
- Reading the numbers: CDH1-null / parental viability ratio: higher = CDH1-null cells survive relatively better than parental; CDH1-null viability vs mock: higher = more viable CDH1-null cells; parental viability vs mock: higher = more viable parental cells
In all, the deposit lists about 18,000 reagents; shown is a random part of them. Reagents against one gene are numbered here. Not given: the amount of reagent, the time to read-out.

gene	reagent no.	CDH1-null / parental viability ratio	CDH1-null viability vs mock (fraction of mock)	parental viability vs mock (fraction of mock)
TAF1B	1	0.83	0.58	0.7
ZNF821 (zinc finger protein 821)	1	0.95	1.03	1.08
XRCC4 (X-ray repair cross complementing 4)	1	1.1	0.92	0.84
ISY1 (ISY1 spliceosome associated protein)	1	1.36	0.15	0.11
SORD (sorbitol dehydrogenase)	1	0.85	0.82	0.96
NUAK2 (NUAK family kinase 2)	1	1.03	0.92	0.89
FLYWCH1 (FLYWCH-type zinc finger 1)	1	1.18	0.9	0.76
TENM1 (teneurin transmembrane protein 1)	1	1.24	1.04	0.84
ARFGAP2 (ARF GTPase activating protein 2)	1	1.06	1.1	1.04
ASAH2 (N-acylsphingosine amidohydrolase 2)	1	1.17	0.75	0.64
IRF5 (interferon regulatory factor 5)	1	1.03	0.71	0.69
HMGCR (3-hydroxy-3-methylglutaryl-CoA reductase)	1	0.87	0.76	0.87
SP5 (Sp5 transcription factor)	1	0.93	0.84	0.9
PIGC (phosphatidylinositol glycan anchor biosynthesis class C)	1	1.11	0.93	0.84
TADA3 (transcriptional adaptor 3)	1	0.85	0.93	1.1
METTL16 (methyltransferase 16, RNA N6-adenosine)	1	0.97	0.96	0.99
DMD (dystrophin)	1	1.05	0.8	0.76
MPC1	1	0.97	0.62	0.64
ADH6 (alcohol dehydrogenase 6 (class V))	1	1.32	1.06	0.8
CTTNBP2NL (CTTNBP2 N-terminal like)	1	0.97	0.7	0.72
RABL2B (RAB, member of RAS oncogene family like 2B)	1	0.97	0.57	0.59
CDA (cytidine deaminase)	1	0.88	0.72	0.82
TACC1 (transforming acidic coiled-coil containing protein 1)	1	0.92	0.8	0.87
C1R (complement C1r)	1	1.15	0.83	0.72
SMAD9 (SMAD family member 9)	1	0.95	0.82	0.86
HSPA12B (heat shock protein family A (Hsp70) member 12B)	1	1.11	0.72	0.65
OR1B1 (olfactory receptor family 1 subfamily B member 1)	1	0.79	0.5	0.63
PRPF4 (pre-mRNA splicing tri-snRNP complex factor PRPF4)	1	1.45	0.8	0.55
LRP1 (LDL receptor related protein 1)	1	1.13	0.69	0.61
MMP20 (matrix metallopeptidase 20)	1	0.9	0.82	0.91
TRAF6 (TNF receptor associated factor 6)	1	0.91	0.85	0.93
ANKK1 (ankyrin repeat and kinase domain containing 1)	1	0.83	0.7	0.84
ZDHHC12 (zDHHC palmitoyltransferase 12)	1	0.93	0.68	0.73
COCH (cochlin)	1	1.07	0.92	0.86
CAMK1D (calcium/calmodulin dependent protein kinase ID)	1	1.05	0.86	0.82
BLOC1S3 (biogenesis of lysosomal organelles complex 1 subunit 3)	1	0.82	0.67	0.82
WDR89 (WD repeat domain 89)	1	1.1	0.92	0.84
GLRX3 (glutaredoxin 3)	1	0.68	0.7	1.03
SLC8B1	1	1.19	1.33	1.12
UPK3B (uroplakin 3B)	1	0.93	0.38	0.41
LINC01565 (long independently transcribed non-coding RNA 1565)	1	1.19	0.74	0.62
BCAT1 (branched chain amino acid transaminase 1)	1	1.17	0.94	0.8
VGLL2 (vestigial like family member 2)	1	1.35	0.7	0.52
HCST (hematopoietic cell signal transducer)	1	0.76	0.83	1.09
HMG20A (high mobility group 20A)	1	1.03	0.76	0.74
LCE3B (late cornified envelope 3B)	1	0.68	0.52	0.77
WDR5B (WD repeat domain 5B)	1	0.84	0.57	0.68
OR4E2 (olfactory receptor family 4 subfamily E member 2)	1	0.86	0.6	0.7
CRYGN (crystallin gamma N)	1	0.87	0.66	0.76
CACNA1B (calcium voltage-gated channel subunit alpha1 B)	1	1.26	1.06	0.84
MIPOL1 (mirror-image polydactyly 1)	1	1.29	0.88	0.68
ADGRB1 (adhesion G protein-coupled receptor B1)	1	1.25	0.99	0.79
SLCO6A1	1	0.99	1.04	1.05
ANKRD34A (ankyrin repeat domain 34A)	1	0.97	0.92	0.95
RPL29 (ribosomal protein L29)	1	1.05	0.78	0.74
DXO (decapping exoribonuclease)	1	0.5	0.28	0.56
TRAF3IP3 (TRAF3 interacting protein 3)	1	1.22	0.78	0.64
MEOX2 (mesenchyme homeobox 2)	1	0.99	0.89	0.9
ZNF497 (zinc finger protein 497)	1	0.91	0.6	0.66
GSTT2 (glutathione S-transferase theta 2 (gene/pseudogene))	1	0.89	0.84	0.94
CLN8 (CLN8 transmembrane ER and ERGIC protein)	1	0.98	0.56	0.57
NOP16 (NOP16 nucleolar protein)	1	1.06	0.36	0.34
OVOS2P (ovostatin 2, pseudogene)	1	0.92	0.82	0.89
TTC22 (tetratricopeptide repeat domain 22)	1	0.92	0.68	0.74
BTBD3 (BTB domain containing 3)	1	1.13	0.93	0.82
AK9 (adenylate kinase 9)	1	0.84	0.57	0.68
AK9 (adenylate kinase 9)	2	1.23	0.9	0.73
AK9 (adenylate kinase 9)	3	0.79	0.52	0.66
